From US20090163577A1, “METHODS AND COMPOSITIONS FOR ANTAGONIZING ANTI-APOPTOTIC Bcl-2-FAMILY PROTEINS” (Burnham Institute for Medical Research, priority 2007, published 2009)

Tested on: bax−/− bak−/− MEFs
Assay: Cytotoxicity in bax-/- bak-/- MEFs
Format: cell-based, mouse
Settings: 20 hrs
Experimental: MEF cells with wild-type (WT) (black symbols) or bax^−/−/bak^−/− (DKO) (white symbols) genotypes were treated with GA (A) or Staurosporine (B) at various concentrations.
Cell Culture, Transfection, and Apoptosis Assays.
GA-induced cytotoxicity is only partly Bcl-2-dependent. Anti-apoptotic Bcl-2-family proteins suppress mitochondria-initiated cell death by inhibiting pro-apoptotic Bcl-2 members Bax and Bak (Kroemer and Reed, Nat. Med. 6:513-519, 2000; Reed, Am. J. Pathol. 157:1415-1430, 2000; Li et al., Cell 116 (2 Suppl.):S57-59, 2 p. following S59). Consequently, when cells are genetically engineered to lack Bax and Bak, then Bcl-2 and related cytoprotective proteins no long display an anti-apoptotic phenotype (Wei et al., Science 292:727-730, 2001). Cells doubly deficient in Bax and Bak therefore provide a context for assessing the mechanism of GA-induced toxicity. GA killed transformed mouse fibroblasts (MEFs) generated from bax+/+ bak+/+ embryos in a concentration-dependent manner (FIG. 6A). […] We conclude therefore that GA induces cytotoxicity through mechanisms that are only partly dependent on Bcl-2-family proteins.

CN[C@@H]1C[C@H]2O[C@@](C)([C@@H]1OC)n1c3ccccc3c3c4c(c5c6ccccc6n2c5c31)C(=O)NC4 [staurosporine, reference compound]
killing of bax−/− bak−/− MEFs: profound block to apoptosis
